Data published in the supplement of paper PMC3334620.
In all, about 33,000 sequences were measured (“E-score (-0.5 to 0.5)”: median about -8e-05, highest 2% from about 0.23 on). The list shows a part of the results.

molecular target: T1, Nrg2 (UniProt P38082); experiment: PBM E-score (8-mer binding enrichment) (E-score (-0.5 to 0.5)); higher = stronger / more preferred TF binding; conditions: protein concentration: 100 nM; construct: GST-full length
T1 sequence: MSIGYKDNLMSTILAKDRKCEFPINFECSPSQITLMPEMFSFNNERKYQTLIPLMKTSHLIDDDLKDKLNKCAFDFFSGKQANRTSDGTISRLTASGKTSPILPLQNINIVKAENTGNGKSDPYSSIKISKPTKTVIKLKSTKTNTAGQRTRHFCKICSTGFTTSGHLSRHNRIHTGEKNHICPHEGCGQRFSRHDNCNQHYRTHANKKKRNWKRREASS
Outline: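 Bound GST-tagged yeast transcription factors, applied at about 100-200 nM to double-stranded universal all-10-mer Agilent arrays, were detected with fluorescent anti-GST. Scans were normalised with masliner. A modified Wilcoxon-Mann-Whitney statistic, the E-score, was assigned to each ungapped eight-base word pooled with its reverse complement by the Universal PBM Analysis Suite.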

Sequence | PBM E-score
GCATGGCA | 0.119
ACGGGTAA | -0.0679
CAGCTTGG | 0.0694
GCGAAACC | -0.0402
GCGCCCAA | 0.0843
TCTATAGA | -0.22
AAAGGAAC | 0.0293
AGGCCCAT | -0.238
GAGGCCCC | -0.206
CTAACCTC | -0.0997
CCGAGAGC | -0.188
ATTAGCAA | 0.186
ACCGCCGC | 0.0991
AAAGGTTA | 0.0194
TATCGTAA | 0.0493
ACCGCGTC | 0.00407
GGTGATAC | -0.00965
AAAAGCAG | -0.113
ACACGTGC | -0.0312
CAACGGTA | -0.111
ATAAGGAC | -0.0237
ACGGGAGC | -0.0168
CACAGCAG | -0.0102
TAGGTCCA | 0.0089
CCAGATGA | 0.0477

Sequence | PBM E-score
AATACGTA | 0.158
ATTATCAC | 0.0352
TATCTTAA | 0.0722
GGGGGCGA | -0.261
AGTCTCAC | -0.166
CATGAACG | -0.0607
CTGGCACC | -0.0867
AATCGATT | 0.247
CAGCCACA | 0.132
CCCAAGCC | -0.12
CTGCGTAC | -0.0163
GTGTGTAA | 0.0615
ACGATCGT | 0.0626
AGAACCAC | 0.0965
GTGGGGAA | 0.0999
GGCCTGTA | -0.133
CCTCTTGA | 0.0273
CTGCGCAC | 0.0755
AAGGCCAT | -0.0415
GCCGGTCA | -0.135
GGTGTTAA | 0.025
CGAGTTAC | 0.215
ACCATTGC | -0.00551
GCGAAACA | 0.0688
AGAGGTTC | -0.0296

Sequence | PBM E-score
CTCACGAG | -0.199
CTCAATTC | 0.0503
ATCATGCA | -0.0548
AAATAATG | 0.13
CCGAATAC | 0.0679
GGACGAAC | -0.00928
GCTAAGCA | -0.0969
CACATTGA | 0.0167
AACGTAGT | -0.0644
ATATGGTA | 0.186
CGTTGTAA | -0.119
GTAAGATA | 0.0912
ACCCTGGC | 0.338
TATCAAAA | 0.104
ATATACAA | 0.237
GATCACAA | 0.141
CTCGTCAC | 0.163
ACTACATC | -0.00301
GAAACGGC | -0.00023
CAACTTTA | 0.123
GCCCGAGA | 0.0295
CCAAGCAC | 0.0892
ATTGACCC | -0.0601
ACTCAACG | -0.0402
ATAGGTGG | -0.0621

Sequence | PBM E-score
ACGGCGCT | -0.122
ACTTAAGG | 0.0478
TACGACGA | 0.0241
GGGGCCCA | 0.117
CAAATCAG | 0.0798
CATTCCGA | 0.136
CTGATAGC | -0.148
GGCTCATA | -0.00373
AGCACCTC | -0.105
CCTAAATA | -0.0809
ACCCCAAA | 0.186
ATATTTCA | 0.133
AACAAGGG | 0.157
AAACAAAC | -0.0324
CGCATCAA | 0.103
AAAATGGT | 0.122
CTCCCAAA | 0.0575
AAGATCTG | 0.155
ACATCCCT | 0.177
ATGTCCTA | -0.0411
TGTAGGAA | -0.156
AAGAGCTG | -0.0447
AGGTTGAA | 0.114
CACGTCCC | -0.0652
AAATACCG | -0.0903

Sequence | PBM E-score
AGGCCCAA | -0.0419
CGCCACAG | -0.04
TTATAGAA | 0.0397
AGCAGTCA | -0.0621
ATTGAAAG | 0.137
CCGAAATA | 0.122
CCTGTTTC | 0.0282
ACTTTTGG | 0.138
AAACCGTG | -0.0232
GCCGCATA | 0.231
CCGTTACA | 0.066
CCTGCAGC | -0.0348
TATCCATA | 0.0902
TGCCAACA | 0.0266
AGTTAGTG | 0.0168
AAATAGAT | 0.27
TATCGGGA | 0.114
ACCGGCGA | 0.0609
ACTGTGAT | -0.0884
CATATAGG | -0.0251
TACTGACA | 0.217
ATAAGCAC | -0.0237
CTCTATAA | -0.12
AAACTATC | -0.0765
GGCCAATA | 0.0885

Sequence | PBM E-score
ACATCATC | 0.201
CTGGGTGC | -0.262
CGATTCCG | -0.0572
AGCTTACA | 0.128
CTCGTAGA | -0.239
GGGAGGAA | -0.0983
TAGCGGCA | 0.0381
AAACCAGC | 0.00359
GAAGTGGA | -0.0618
AACGCGGC | 0.0315
CCGGACAA | 0.058
GACCTCCA | -0.0325
TCCGGCGA | 0.0493
GGAGTATA | -0.00591
GTGATCGA | 0.202
CGGTCTTC | -0.126
CCCATGAG | 0.063
GGAAAGCC | 0.0073
ATGAATGA | 0.0659
TGGTGCAA | -0.222
ATTGGCCA | 0.171
GTCCCTTA | 0.288
AACGACGA | 0.209
GAGAGCTA | 0.0932
ACCGTACA | -0.0836

Part of the list above, in markdown:

| Sequence | PBM E-score |
| --- | --- |
| CTCGTAGA | -0.239 |
| GGGAGGAA | -0.0983 |
| TAGCGGCA | 0.0381 |
| AAACCAGC | 0.00359 |
| GAAGTGGA | -0.0618 |
| AACGCGGC | 0.0315 |

(next part)

Sequence | PBM E-score
GAAGATGA | -0.0517
GTACGCCA | -0.168
ACTAAACG | -0.0243
CTGACTAC | -0.0182
ACAAGTAT | 0.166
AAGAGTGC | 0.0243
TCAAGGAA | 0.116
AGTGGTAT | 0.0955
AATCGCCA | 0.0545
TCCCGAAA | -0.0707
AGACTTAC | -0.21
ATGCTCCG | -0.347
ACCACCCA | -0.0198
AATTTGGT | 0.164
ACAGGTAA | -0.00823
AATGGATG | 0.0757
AATGTTTC | -0.0936
ACACAACA | -0.0995
GTTCTGGA | -0.129
GTGGGGGA | -0.305
GATATAAC | 0.105
CTTCCCAA | -0.109
